# Results as given in the supplement of paper PMC6411743.
# ± gives the standard deviation of the averaged measurements. Only a part is listed here, and it is no random draw.
# How the values were obtained:
# Experiment in all cases: NP40-soluble protein abundance relative to vehicle (solubility fold change) (ratio); higher = more soluble protein in presence of ATP
# [1] = target: T1, UniProt Q8N8K9 and related entries
# T1 sequence (whole entry): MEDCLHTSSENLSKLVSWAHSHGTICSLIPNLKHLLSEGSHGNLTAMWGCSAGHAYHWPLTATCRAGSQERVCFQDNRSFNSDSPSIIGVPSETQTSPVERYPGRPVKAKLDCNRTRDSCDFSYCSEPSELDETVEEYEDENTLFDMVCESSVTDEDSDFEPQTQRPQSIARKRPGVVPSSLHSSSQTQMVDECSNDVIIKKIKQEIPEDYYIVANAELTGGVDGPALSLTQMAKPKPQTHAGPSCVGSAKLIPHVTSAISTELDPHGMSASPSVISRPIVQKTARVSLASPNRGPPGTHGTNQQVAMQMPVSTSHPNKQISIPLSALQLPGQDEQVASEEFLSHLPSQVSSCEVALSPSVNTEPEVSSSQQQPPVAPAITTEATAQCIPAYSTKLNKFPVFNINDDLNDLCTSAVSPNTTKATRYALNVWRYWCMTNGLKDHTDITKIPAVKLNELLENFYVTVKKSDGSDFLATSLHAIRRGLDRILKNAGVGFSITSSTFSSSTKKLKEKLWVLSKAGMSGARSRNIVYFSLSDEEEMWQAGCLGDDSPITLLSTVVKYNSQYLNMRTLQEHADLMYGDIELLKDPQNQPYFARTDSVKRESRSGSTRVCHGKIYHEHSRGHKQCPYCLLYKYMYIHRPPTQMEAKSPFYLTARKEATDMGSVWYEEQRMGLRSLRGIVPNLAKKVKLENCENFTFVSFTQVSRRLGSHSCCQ
# Summary of the method: (§1)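 Across three independent experiments, values are fold changes against the detergent-processed vehicle for each replicate, based on vsn-normalised intensities. The samples were Jurkat crude lysate treated with eight concentrations (0.1 to 10 mM) for 10 min at room temperature and then 3 min at 37 °C. Lysate was solubilised with 0.8% NP40 and benzonase, ultracentrifuged, and the supernatant analysed by TMT-labelled LC-MS/MS.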
# [2] = target: T2, UniProt Q8NBZ7 and related entries
# T2 sequence (whole entry): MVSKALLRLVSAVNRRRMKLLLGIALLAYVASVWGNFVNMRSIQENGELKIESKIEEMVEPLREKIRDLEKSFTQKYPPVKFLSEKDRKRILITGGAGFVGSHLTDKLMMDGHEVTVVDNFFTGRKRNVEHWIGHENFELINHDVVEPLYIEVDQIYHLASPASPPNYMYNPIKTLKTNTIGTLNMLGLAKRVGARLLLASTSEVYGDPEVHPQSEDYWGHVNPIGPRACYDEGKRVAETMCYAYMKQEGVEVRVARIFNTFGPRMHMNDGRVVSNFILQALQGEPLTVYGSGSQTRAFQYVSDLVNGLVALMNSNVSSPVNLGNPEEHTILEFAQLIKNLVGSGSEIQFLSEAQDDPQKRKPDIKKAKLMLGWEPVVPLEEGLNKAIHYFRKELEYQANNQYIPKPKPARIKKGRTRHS
# Summary of the method: as §1
# [3] = target: T3, UniProt Q8NDD1 and related entries
# T3 sequence (whole entry): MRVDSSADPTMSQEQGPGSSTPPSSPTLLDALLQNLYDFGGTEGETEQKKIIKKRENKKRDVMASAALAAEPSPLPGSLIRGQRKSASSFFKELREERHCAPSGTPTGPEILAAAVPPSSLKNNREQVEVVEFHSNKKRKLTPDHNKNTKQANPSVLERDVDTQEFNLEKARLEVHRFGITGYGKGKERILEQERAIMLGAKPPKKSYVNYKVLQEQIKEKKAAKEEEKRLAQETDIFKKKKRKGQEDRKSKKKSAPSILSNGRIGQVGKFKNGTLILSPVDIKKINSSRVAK
# Summary of the method: as §1
# [4] = target: T4, UniProt Q8NEY8 and related entries
# T4 sequence (whole entry): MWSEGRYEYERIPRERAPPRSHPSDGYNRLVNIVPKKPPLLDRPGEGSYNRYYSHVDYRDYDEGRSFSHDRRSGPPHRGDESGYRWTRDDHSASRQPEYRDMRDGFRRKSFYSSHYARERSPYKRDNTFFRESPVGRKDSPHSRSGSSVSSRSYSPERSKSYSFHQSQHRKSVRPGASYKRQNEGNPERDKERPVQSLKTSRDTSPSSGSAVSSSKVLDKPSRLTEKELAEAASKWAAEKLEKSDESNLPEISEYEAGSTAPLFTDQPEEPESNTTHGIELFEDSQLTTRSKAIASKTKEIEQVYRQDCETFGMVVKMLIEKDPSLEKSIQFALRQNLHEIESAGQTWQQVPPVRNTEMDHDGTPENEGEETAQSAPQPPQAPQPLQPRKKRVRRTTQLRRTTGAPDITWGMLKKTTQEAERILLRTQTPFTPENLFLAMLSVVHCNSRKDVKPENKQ
# Summary of the method: as §1
# [5] = target: T5, UniProt Q8NFV4 and related entries
# T5 sequence (whole entry): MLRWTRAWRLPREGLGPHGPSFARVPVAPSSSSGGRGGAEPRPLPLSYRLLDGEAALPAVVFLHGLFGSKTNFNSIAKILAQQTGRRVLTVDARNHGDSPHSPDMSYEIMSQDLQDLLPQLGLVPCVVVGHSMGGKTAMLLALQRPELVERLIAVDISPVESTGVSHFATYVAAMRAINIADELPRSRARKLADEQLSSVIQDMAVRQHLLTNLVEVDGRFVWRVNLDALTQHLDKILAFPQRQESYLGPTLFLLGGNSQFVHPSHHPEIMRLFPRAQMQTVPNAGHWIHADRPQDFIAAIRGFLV
# Summary of the method: as §1
# [6] = target: T6, UniProt Q8TAA5 and related entries
# T6 sequence (whole entry): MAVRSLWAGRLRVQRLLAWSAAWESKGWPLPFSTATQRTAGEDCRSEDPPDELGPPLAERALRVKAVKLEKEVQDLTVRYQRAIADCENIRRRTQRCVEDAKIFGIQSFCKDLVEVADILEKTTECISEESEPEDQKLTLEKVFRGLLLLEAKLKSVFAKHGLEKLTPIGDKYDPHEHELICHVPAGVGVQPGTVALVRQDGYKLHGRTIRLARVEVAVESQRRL
# Summary of the method: as §1
compound,measurement,setting,value
Nc1ncnc2c1ncn2[C@@H]1O[C@H](COP(=O)(O)OP(=O)(O)OP(=O)(O)O)[C@@H](O)[C@H]1O [adenosine triphosphate],NP40-soluble protein abundance,[1]; concentration: 8mM,0.971 ± 0.075
same,NP40-soluble protein abundance,[1]; concentration: 10mM,1.01 ± 0.051
same,NP40-soluble protein abundance,[2]; concentration: 1mM,1.06 ± 0.1
same,NP40-soluble protein abundance,[2]; concentration: 2mM,1.02 ± 0.056
same,NP40-soluble protein abundance,[2]; concentration: 4mM,1.01 ± 0.092
same,NP40-soluble protein abundance,[2]; concentration: 6mM,1.04 ± 0.065
same,NP40-soluble protein abundance,[2]; concentration: 8mM,1.06 ± 0.063
same,NP40-soluble protein abundance,[2]; concentration: 10mM,1.06 ± 0.045
same,NP40-soluble protein abundance,[3]; concentration: 1mM,1.05 ± 0.045
same,NP40-soluble protein abundance,[3]; concentration: 2mM,1.11 ± 0.054
same,NP40-soluble protein abundance,[3]; concentration: 4mM,1.199 ± 0.011
same,NP40-soluble protein abundance,[3]; concentration: 6mM,1.28 ± 0.049
same,NP40-soluble protein abundance,[3]; concentration: 8mM,1.25 ± 0.066
same,NP40-soluble protein abundance,[3]; concentration: 10mM,1.32 ± 0.057
same,NP40-soluble protein abundance,[4]; concentration: 1mM,1.03 ± 0.052
same,NP40-soluble protein abundance,[4]; concentration: 2mM,1.1 ± 0.046
same,NP40-soluble protein abundance,[4]; concentration: 4mM,1.22 ± 0.025
same,NP40-soluble protein abundance,[4]; concentration: 6mM,1.27 ± 0.094
same,NP40-soluble protein abundance,[4]; concentration: 8mM,1.27 ± 0.096
same,NP40-soluble protein abundance,[4]; concentration: 10mM,1.32 ± 0.018
same,NP40-soluble protein abundance,[5]; concentration: 1mM,0.963 ± 0.11
same,NP40-soluble protein abundance,[5]; concentration: 2mM,1.01 ± 0.053
same,NP40-soluble protein abundance,[5]; concentration: 4mM,0.962 ± 0.046
same,NP40-soluble protein abundance,[5]; concentration: 6mM,0.943 ± 0.08
same,NP40-soluble protein abundance,[5]; concentration: 8mM,0.957 ± 0.034
same,NP40-soluble protein abundance,[5]; concentration: 10mM,0.884 ± 0.12
same,NP40-soluble protein abundance,[6]; concentration: 1mM,0.963 ± 0.13
same,NP40-soluble protein abundance,[6]; concentration: 2mM,0.991 ± 0.097
same,NP40-soluble protein abundance,[6]; concentration: 4mM,0.962 ± 0.12
same,NP40-soluble protein abundance,[6]; concentration: 6mM,0.898 ± 0.093
same,NP40-soluble protein abundance,[6]; concentration: 8mM,0.907 ± 0.15
same,NP40-soluble protein abundance,[6]; concentration: 10mM,0.937 ± 0.06

# Part of the list above, with bars between the fields.
compound | measurement | setting | value
Nc1ncnc2c1ncn2[C@@H]1O[C@H](COP(=O)(O)OP(=O)(O)OP(=O)(O)O)[C@@H](O)[C@H]1O [adenosine triphosphate] | NP40-soluble protein abundance | [2]; concentration: 8mM | 1.06 ± 0.063
same | NP40-soluble protein abundance | [2]; concentration: 10mM | 1.06 ± 0.045
same | NP40-soluble protein abundance | [3]; concentration: 1mM | 1.05 ± 0.045
